# Test results from the supplement of paper PMC7411640.
# Counter-ions that a name gives are not always drawn. The list shows a part of the results. Most values lie within the scatter of the assay; repeated measurements hardly agree.
# System: MDA-MB-468
# Assay: phospho-S6 immunofluorescence (DAPI-normalised), per-plate z-score; higher = higher phospho-S6 signal (less pathway suppression)
# Conditions: compound 0.1 µM; co-treatment: vehicle; 24 h
# Experimental: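 GPCR-targeted compound library (MedChemExpress HY-L006) tested on MDA-MB-468 PTEN-null TNBC cells in 384-well plates at 0.1, 1 or 10 uM, combined with vehicle, GDC0941 450 nM or lapatinib 1 uM, for 24 h. Phospho-S6 (S240/244) immunofluorescence normalised to DAPI and expressed as a per-plate z-score; values are the mean of biological triplicates.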
row,Compound,phospho-S6 immunofluorescence (z-score)
1,O=C(NC(Cc1cc(=O)[nH]c2ccccc12)C(=O)O)c1ccc(Cl)cc1 (stereo not given) [Rebamipide],0.18
2,Cc1nc(C(=O)N2CCC[C@H]2Cc2nnc(-c3ccccc3)o2)c(-c2ccccc2F)s1,1.98
3,Cc1cc(C(C)(C)C)cc(C)c1CC1=NCCN1 [Xylometazoline (hydrochloride)],0.35
4,C[C@]12CCC(=O)C=C1CC[C@@H]1[C@@H]2[C@@H](O)C[C@@]2(C)[C@H]1CC[C@]2(O)C(=O)CO [Hydrocortisone],0.52
5,CN(C)CCOC(c1ccccc1)c1ccccc1.Cn1c(=O)c2[nH]c(Cl)nc2n(C)c1=O [Dimenhydrinate],0.48
6,CN(C)CCC=C1c2ccccc2C=Cc2ccccc21 [Cyclobenzaprine (hydrochloride)],-0.31
7,O=C(O)CC1CCC2(CC1)CCN(c1cc(OC(F)(F)F)ccc1Cl)CC2,-0.55
8,O=C1CC2(CCCC2)CC(=O)N1CCCCN1CCN(c2ncccn2)CC1 [Buspirone (hydrochloride)],1.73
9,COc1ccccc1Oc1c(NS(=O)(=O)c2ccc(C)cn2)nc(-c2ccncc2)nc1OC [Avosentan],-0.24
10,Cc1ccc(-c2n[nH]c3c2C(c2cccc(O)c2)N(c2ccc(C(=O)O)cc2)C3=O)cc1 (stereo not given),-0.66
11,CCOc1nc2cccc(C(=O)O)c2n1Cc1ccc(-c2ccccc2-c2nnn[nH]2)cc1 [Candesartan],0.86
12,NC(N)=Nc1nc(CSCC/C(N)=N/S(N)(=O)=O)cs1 [Famotidine],-1.3
13,CC(C)(Cc1ccc2ccccc2c1)NC[C@@H](O)COc1cccc(Cl)c1C#N [NPS-2143 (hydrochloride)],0.07
14,Cc1cc2c(s1)Nc1ccccc1N=C2N1CCN(C)CC1 [Olanzapine],1.6
15,CCOC(=O)N1CCC(NCCNC(=O)c2ccccc2C)CC1,0.55
16,CN1[C@@H]2CC[C@H]1C[C@@H](OC(=O)c1c[nH]c3ccccc13)C2 [Tropisetron (Hydrochloride)],0.48
17,CCc1cc2c(cc1CC)CC(NC[C@H](O)c1ccc(O)c3[nH]c(=O)ccc13)C2 [Indacaterol (maleate)],1.07
18,O=c1[nH]c2ccccc2n1CCN1CCN(c2cccc(C(F)(F)F)c2)CC1 [Flibanserin],0.66
19,C[N+](C)(C)CCOC(N)=O [Carbamoylcholine (chloride)],1.02
20,CC(C)(C)NCC(O)c1cc(O)cc(O)c1 (stereo not given) [Terbutaline (sulfate)],1.23

row,Compound,phospho-S6 immunofluorescence (z-score)
1,COc1nc(C)cnc1NS(=O)(=O)c1cccnc1-c1ccc(-c2nnco2)cc1 [Zibotentan],-1.87
2,O=C(CN1C(=O)C2(CCCC2)NC[C@H]1c1cc(F)cc(F)c1)Nc1ccc2c(c1)C[C@@]1(C2)C(=O)Nc2ncccc21 [MK-3207 (Hydrochloride)],-0.78
3,CCN(CC)CCCC(C)Nc1nc(C)cc(Nc2ccc3nc(C)cc(N)c3c2)n1 (stereo not given),0.66
4,CCC(=O)NC[C@@H]1C[C@H]1c1cccc2c1CCO2 [Tasimelteon],0.02
5,CCOc1nc2cccc(C(=O)OC(C)OC(=O)OC3CCCCC3)c2n1Cc1ccc(-c2ccccc2-c2nn[nH]n2)cc1 (stereo not given) [Candesartan (Cilexetil)],-0.22
6,Clc1ccc(Cn2c(CN3CCCC3)nc3ccccc32)cc1 [Clemizole (hydrochloride)],-1.19
7,CN(C)CCN1C(=O)c2cccc3cc(NC(N)=O)cc(c23)C1=O,-0.9
8,CC(C)C[C@H](NC(=O)[C@@H](COC(C)(C)C)NC(=O)[C@H](Cc1ccc(O)cc1)NC(=O)[C@H](CO)NC(=O)[C@H](Cc1c[nH]c2ccccc12)NC(=O)[C@H](Cc1cnc[nH]1)NC(=O)[C@@H]1CCC(=O)N1)C(=O)N[C@@H](CCCNC(=N)N)C(=O)N1CCC[C@H]1C(=O)NNC(N)=O [Goserelin (acetate)],0.78
9,CN1Cc2c(N)cccc2C(c2ccccc2)C1 (stereo not given) [Nomifensine (maleate)],-0.61
10,O=c1cc(CN2CCOCC2)occ1OCCCCCSc1ccnc2cc(C(F)(F)F)ccc12,0.12
11,COc1cccc(CCc2ccccc2OCC(CN(C)C)OC(=O)CCC(=O)O)c1 (stereo not given) [Sarpogrelate (hydrochloride)],-0.71
12,COc1cccc(-c2c(C)n(Cc3c(F)cccc3C(F)(F)F)c(=O)n(C[C@H](NCCCC(=O)O)c3ccccc3)c2=O)c1F [Elagolix],-0.15
13,CN1CCN2c3c(cccc31)[C@@H]1CN(CCCC(=O)c3ccc(F)cc3)CC[C@@H]12 [lumateperone (Tosylate)],-5.01
14,CN(C)CCCN1c2ccccc2Sc2ccc(C(F)(F)F)cc21 [Triflupromazine (hydrochloride)],1.13
15,COc1cc2nc(N3CCN(C(=O)C4COc5ccccc5O4)CC3)nc(N)c2cc1OC (stereo not given) [Doxazosin (mesylate)],-0.01
16,CSc1ccc2c(c1)N(CCC1CCCCN1C)c1ccccc1S2 (stereo not given) [Thioridazine (hydrochloride)],-0.82
17,O=C(O)COc1cccc(CN(Cc2ccc(-n3cccn3)cc2)S(=O)(=O)c2cccnc2)c1 [Taprenepag],0.23
18,Cc1nn(C)c2c1C(c1ccc(C(F)(F)F)cc1)C(C#N)=C(N)O2 (stereo not given),0.23
19,OCCOCCN1CCN(C2=Nc3ccccc3Sc3ccccc32)CC1 [Quetiapine],1.37
20,N=C(N)NCCC[C@H](NC(=O)[C@H](Cc1ccccc1)NC(=O)[C@@H]1CCCN1C(=O)[C@H](CO)NC(=O)[C@H](Cc1ccccc1)NC(=O)CNC(=O)[C@@H]1CCCN1C(=O)[C@@H]1CCCN1C(=O)[C@@H](N)CCCNC(=N)N)C(=O)O [Bradykinin],0.54

# Part of the list above, with tabs:
row	Compound	phospho-S6 immunofluorescence (z-score)
8	CC(C)C[C@H](NC(=O)[C@@H](COC(C)(C)C)NC(=O)[C@H](Cc1ccc(O)cc1)NC(=O)[C@H](CO)NC(=O)[C@H](Cc1c[nH]c2ccccc12)NC(=O)[C@H](Cc1cnc[nH]1)NC(=O)[C@@H]1CCC(=O)N1)C(=O)N[C@@H](CCCNC(=N)N)C(=O)N1CCC[C@H]1C(=O)NNC(N)=O [Goserelin (acetate)]	0.78
9	CN1Cc2c(N)cccc2C(c2ccccc2)C1 (stereo not given) [Nomifensine (maleate)]	-0.61
10	O=c1cc(CN2CCOCC2)occ1OCCCCCSc1ccnc2cc(C(F)(F)F)ccc12	0.12
